## Screening data, single-dose tests

The chains behind the UniProt entries cited, without tags or fusion partners. Residues count along the entry.
UniProt P9WFT3, whole entry: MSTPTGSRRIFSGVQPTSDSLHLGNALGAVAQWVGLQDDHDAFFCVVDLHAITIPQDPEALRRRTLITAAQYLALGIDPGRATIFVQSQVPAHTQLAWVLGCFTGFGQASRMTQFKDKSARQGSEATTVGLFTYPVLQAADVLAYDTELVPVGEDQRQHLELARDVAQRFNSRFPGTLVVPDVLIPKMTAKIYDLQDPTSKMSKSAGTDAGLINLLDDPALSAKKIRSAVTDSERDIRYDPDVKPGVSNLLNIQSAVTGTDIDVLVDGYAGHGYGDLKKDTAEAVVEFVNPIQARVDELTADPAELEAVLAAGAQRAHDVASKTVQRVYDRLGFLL
UniProt I6X8D2, whole entry: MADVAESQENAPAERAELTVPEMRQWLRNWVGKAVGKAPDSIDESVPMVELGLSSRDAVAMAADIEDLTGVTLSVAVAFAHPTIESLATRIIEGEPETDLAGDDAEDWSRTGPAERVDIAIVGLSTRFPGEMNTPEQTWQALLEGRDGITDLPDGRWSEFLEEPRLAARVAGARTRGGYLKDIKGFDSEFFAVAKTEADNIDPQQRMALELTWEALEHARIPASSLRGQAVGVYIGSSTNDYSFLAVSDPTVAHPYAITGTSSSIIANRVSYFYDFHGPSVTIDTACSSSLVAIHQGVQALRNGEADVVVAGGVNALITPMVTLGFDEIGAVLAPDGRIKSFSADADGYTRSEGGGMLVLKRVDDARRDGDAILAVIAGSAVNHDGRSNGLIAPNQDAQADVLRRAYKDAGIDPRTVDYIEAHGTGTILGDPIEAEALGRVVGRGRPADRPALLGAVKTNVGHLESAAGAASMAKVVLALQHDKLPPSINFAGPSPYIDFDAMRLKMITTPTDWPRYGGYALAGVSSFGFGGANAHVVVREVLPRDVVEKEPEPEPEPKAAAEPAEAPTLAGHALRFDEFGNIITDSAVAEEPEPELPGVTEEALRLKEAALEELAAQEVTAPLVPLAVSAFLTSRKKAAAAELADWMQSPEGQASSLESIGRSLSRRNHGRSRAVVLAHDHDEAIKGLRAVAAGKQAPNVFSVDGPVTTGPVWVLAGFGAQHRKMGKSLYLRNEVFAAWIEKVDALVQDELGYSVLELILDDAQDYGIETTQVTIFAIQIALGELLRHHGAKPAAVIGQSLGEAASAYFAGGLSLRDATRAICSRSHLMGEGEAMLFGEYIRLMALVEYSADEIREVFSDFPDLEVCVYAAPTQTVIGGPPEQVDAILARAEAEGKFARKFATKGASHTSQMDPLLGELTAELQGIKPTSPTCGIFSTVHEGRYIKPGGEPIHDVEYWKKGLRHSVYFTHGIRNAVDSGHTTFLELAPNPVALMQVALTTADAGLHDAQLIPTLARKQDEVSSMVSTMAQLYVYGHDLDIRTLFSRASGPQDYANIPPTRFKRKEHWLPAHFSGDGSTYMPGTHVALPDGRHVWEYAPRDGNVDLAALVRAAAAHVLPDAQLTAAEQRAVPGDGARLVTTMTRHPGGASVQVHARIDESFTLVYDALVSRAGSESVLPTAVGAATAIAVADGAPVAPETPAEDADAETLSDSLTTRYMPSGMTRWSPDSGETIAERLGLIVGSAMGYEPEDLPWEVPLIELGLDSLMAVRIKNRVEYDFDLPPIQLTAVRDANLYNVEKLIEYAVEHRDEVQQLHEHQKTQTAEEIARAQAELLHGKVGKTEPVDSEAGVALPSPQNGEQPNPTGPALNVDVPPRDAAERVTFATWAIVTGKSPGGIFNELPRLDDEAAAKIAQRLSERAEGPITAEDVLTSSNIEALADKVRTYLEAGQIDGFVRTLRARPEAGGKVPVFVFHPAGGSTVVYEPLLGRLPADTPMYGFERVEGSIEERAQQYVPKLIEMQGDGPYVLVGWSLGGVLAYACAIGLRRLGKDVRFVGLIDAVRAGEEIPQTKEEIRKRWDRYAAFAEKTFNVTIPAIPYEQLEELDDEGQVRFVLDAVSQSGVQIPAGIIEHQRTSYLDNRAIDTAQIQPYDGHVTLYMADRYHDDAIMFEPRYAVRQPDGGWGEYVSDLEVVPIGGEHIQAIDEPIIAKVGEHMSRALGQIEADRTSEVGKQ
UniProt A4I591, 1-473: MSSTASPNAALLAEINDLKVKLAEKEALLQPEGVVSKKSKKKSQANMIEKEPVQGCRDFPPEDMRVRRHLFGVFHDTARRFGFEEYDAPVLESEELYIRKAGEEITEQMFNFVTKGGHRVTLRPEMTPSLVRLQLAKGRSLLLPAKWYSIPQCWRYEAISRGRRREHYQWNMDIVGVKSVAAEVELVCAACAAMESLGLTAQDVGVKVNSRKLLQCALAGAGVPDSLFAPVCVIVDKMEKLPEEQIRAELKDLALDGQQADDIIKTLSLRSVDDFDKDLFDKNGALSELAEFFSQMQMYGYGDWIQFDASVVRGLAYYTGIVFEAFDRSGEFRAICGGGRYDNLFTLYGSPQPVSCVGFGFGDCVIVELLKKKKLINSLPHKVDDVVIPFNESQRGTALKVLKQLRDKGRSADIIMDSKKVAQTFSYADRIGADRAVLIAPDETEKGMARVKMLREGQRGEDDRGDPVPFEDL
UniProt Q4DA54, 1-478: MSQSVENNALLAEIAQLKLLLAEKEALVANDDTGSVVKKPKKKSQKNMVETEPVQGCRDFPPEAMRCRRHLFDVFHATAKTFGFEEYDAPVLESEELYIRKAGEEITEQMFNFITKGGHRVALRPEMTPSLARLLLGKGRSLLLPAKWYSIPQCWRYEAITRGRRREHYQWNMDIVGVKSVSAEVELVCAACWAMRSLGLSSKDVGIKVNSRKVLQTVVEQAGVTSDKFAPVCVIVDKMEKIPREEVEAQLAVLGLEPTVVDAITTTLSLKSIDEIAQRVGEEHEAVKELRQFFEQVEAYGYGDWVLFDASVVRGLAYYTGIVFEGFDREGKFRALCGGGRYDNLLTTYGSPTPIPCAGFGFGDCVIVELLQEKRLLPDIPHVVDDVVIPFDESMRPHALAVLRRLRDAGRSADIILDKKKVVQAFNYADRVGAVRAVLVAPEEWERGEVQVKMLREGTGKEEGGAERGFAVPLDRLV

Measurements from “University of Dundee, Small-Polar-MMV Screening Library” (2021), ChEMBL document CHEMBL3988442.

Each number is a percent effect as filed. How 0% and 100% were set is not recorded. Most values in the screen are low, and negative values occur. Compounds were drawn at random from those tested, without regard to their results. A dash means the value is not listed here; it may have been measured.

MtTrpRS: 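Tryptophan-tRNA ligase, Mycobacterium tuberculosis (UniProt P9WFT3). Enzyme assay of tryptophanyl-tRNA synthetase; the read-out is not stated. Compounds at 10 µM. Higher most likely means stronger inhibition; the record gives no direction and few retests gave an IC50. Size under these conditions: about 65,000 compounds, about 64 of them at 50% or above in at least one test.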
Pks13 thioesterase: 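Enzyme assay of the thioesterase domain of polyketide synthase 13; the read-out is not stated. Target: Polyketide synthase Pks13, Mycobacterium tuberculosis (UniProt I6X8D2). Tested at 30 µM. Higher reads as stronger inhibition (inferred from which compounds were picked for retests). About 67,000 compounds were tested under these conditions; 0.46% (about 300) showed 50% or more at least once.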
LiHisRS: 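Enzyme assay of histidyl-tRNA synthetase; the read-out is not stated. Target: Histidine-tRNA ligase, Leishmania infantum (UniProt A4I591). Compounds at 30 µM. The record gives no direction; compounds that gave an IC50 in retests scored well above the rest, so higher reads as stronger inhibition. The assay is labelled LdHisRS but filed under L. infantum. About 69,000 compounds were tested under these conditions; 0.6% (about 410) showed 50% or more at least once.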
TcHisRS: 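Enzyme assay of histidyl-tRNA synthetase; the read-out is not stated. Target: Histidine-tRNA ligase, Trypanosoma cruzi CL Brener (UniProt Q4DA54). Tested at 30 µM. Higher reads as stronger inhibition (inferred: compounds with an IC50 in retests scored well above the rest). Size under these conditions: about 69,000 compounds, about 31 of them at 50% or above in at least one test.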

| Compound | MtTrpRS | Pks13 thioesterase | LiHisRS | TcHisRS |
|---|---|---|---|---|
| `O=C(Nc1ccccc1)c1ccc(NCc2ccncc2)nn1` | -0.9082 | -23.07 | 12.68 | 9.554 |
| `COc1cccc(NC(=O)c2nc3ccccc3n(C)c2=O)c1` | -11.15 | -2.105 | 31.46 | -14.57 |
| `CCOc1ccccc1CC(=O)N1C[C@@H](C(=O)O)[C@H](C2CC2)C1` | 4.552 | -7.057 | 14.29 | 8 |
| `CN1CCCCC1c1cncc(Cl)n1` (stereo not drawn) | -3.179 | -3.048 | 14.49 | 5.303 |
| `CC(NS(N)(=O)=O)c1ccc(OCc2ccc(F)cc2)cc1` (stereo not drawn) | -28.77 | 11.88 | 27.06 | 9.045 |
| `OCCCN1CCCC1c1ccc(Br)cc1` (stereo not drawn) | -1.65 | -29.93 | 10.92 | -0.9804 |
| `Cc1ccc(OCC(=O)Nc2ncccc2OC(F)F)cc1` | 4.85 | -34.64 | 26.03 | 9.852 |
| `CCN1CCN(c2ccc(C(=O)NC(C)C(=O)N(C)C)cc2)CC1` (stereo not drawn) | 3.333 | -13.1 | 13.33 | 9.524 |
| `Cc1cc(NC(=O)CN2CCn3c(nnc3C3CC3)C2)on1` | -2.574 | -10.82 | 10.71 | 4.142 |
| `CC(C)NC(=O)N1CCC(n2ccc(C(F)(F)F)n2)CC1` | 2.21 | -11.99 | 13.46 | -0.8264 |
| `CCc1nc(CN2CCCN(c3ncnc4sccc34)CC2)no1` | 1.002 | -14.59 | 24.73 | 4.167 |
| `COC(=O)CC1c2cccnc2C(=O)N1Cc1ccccc1` (stereo not drawn) | - | -5.913 | 8.247 | 5.78 |
| `Cc1ccc(=O)n(Cc2csc(N(C)C3CC3)n2)n1` | -3.549 | -25.4 | 22.39 | 4.255 |
| `O=C(c1cccnc1)N1CCCC1C1CCN(Cc2ccccc2)CC1` (stereo not drawn) | -3.311 | -16.73 | 19.2 | -0.9804 |
| `CC(C)CS(=O)(=O)CC(=O)N(C)Cc1ccc(OC(F)F)cc1` | -7.663 | -14.73 | 13.46 | 4.167 |
| `CN(Cc1cnn(C)c1)C(=O)NCc1csc(Br)c1` | -2.818 | -10.42 | 0 | 0.3831 |
| `CN(Cc1cccc(O)c1)C(=O)Nc1cccnc1N1CCCC1` | 13.97 | -24.39 | 14.91 | 2.89 |
| `c1cc(CN2CCc3cncnc3C2)c2c(c1)OCCO2` | -0.8189 | 31.58 | 34.33 | 23.4 |
| `Cn1cc(C2COC3(CCN(C(=O)c4ccc(F)cc4)CC3)C2)cn1` (stereo not drawn) | 1.831 | -25.63 | 10.53 | 2.762 |
| `O=C1NC2(CCN(CCc3ccccc3)CC2)CC1c1ccccc1` (stereo not drawn) | -2.594 | -10.64 | 5.128 | 4.598 |
| `Cc1csc(C2(NCCC(=O)N3CCOCC3)CCCC2)n1` | 7.866 | 4.969 | 11.69 | -3.448 |
| `NC(=O)CCNC(=O)NCC1(c2ccccc2Cl)CCC1` | -4.383 | -27.52 | 12.82 | 3.448 |
| `O=C(NCc1nnc2ccccn12)N1CCOC(c2ccsc2)C1` (stereo not drawn) | -1.314 | -1.465 | 16 | 6.024 |
| `CCc1ccc(CNC[C@H]2C[C@@H](CO)N(C)[C@H]2c2ccccc2F)o1` | 1.487 | -17.82 | 8.824 | -0.5291 |
| `Cc1ccc(CN2CC[C@H]3NC(=O)CC[C@@H]32)o1` | -2.907 | -15.29 | 21.15 | 6.796 |
| `CCN1CCCC1CNC(=O)Cc1c(C)n[nH]c1-c1ccc(F)cc1` (stereo not drawn) | 1.078 | -14.29 | 42.86 | 9.278 |
| `COc1ccc(C)c2c1N(C(=O)c1ccc3nnc(C)n3c1)CCC2` | -1.972 | -15.3 | 15.25 | 2.439 |
| `CC(=O)N1CCN(c2cc(C)ncn2)CC(CO)C1` (stereo not drawn) | -4.008 | 2.018 | 11.59 | 9.091 |
| `Cc1cccc(CN2CCC3(CC2)CC(Oc2cccnc2)C3)n1` | -0.9709 | -30.95 | 18.97 | 0 |
| `COc1ccc(S(=O)(=O)NC2(CC(N)=O)CCC2)cc1` | 1.41 | -9.425 | -6.452 | 4.938 |
| `N#Cc1ncn(CC(=O)N2CCCC2c2cccs2)n1` (stereo not drawn) | -0.4105 | -5.678 | 10.85 | 7.143 |
| `COc1ccc(C)cc1CN(CC(N)=O)C(C)C` | -4.601 | -11.52 | 5.181 | 1.657 |
| `CCN(CC)c1ccc(NS(=O)(=O)c2cnn(C(C)C)c2)cn1` | -0.5387 | 12.26 | 14.52 | 0 |
| `COCC1COCCC12CCN(C(=O)Cc1cccc(OC)c1)CC2` (stereo not drawn) | 1.245 | -2.198 | -28.21 | 3.659 |
| `Cc1cccc(N(CC(=O)c2ccccc2)C2=NCCCCC2)c1` | 1.295 | 16.45 | 10.53 | 1.22 |
| `CS(=O)(=O)N1CCn2c(C(=O)N3CCOCC3)cnc2C1` | 1.187 | -25.13 | 17.24 | 8.861 |
| `CCOCC(=O)N1C[C@@H]2CC[C@H](C1)N(Cc1ccccn1)C2=O` | -3.078 | -4.903 | 11.48 | 2.326 |
| `O=C(c1cnccn1)N1CCCC2(COCCN(CC3CC3)C2)C1` (stereo not drawn) | -0.2876 | -13.9 | 3.922 | 4.918 |
| `CC(C(=O)Nc1cc(F)ccc1F)N1CCN(Cc2ncc[nH]2)CC1` (stereo not drawn) | 4.454 | -6.046 | 19.51 | 7.212 |
| `NCC(=O)N1CCCCC1c1ccc(F)cc1` (stereo not drawn) | 0.1324 | -5.624 | 13.19 | 3.012 |
| `COc1ccc(C2CCCN2C(=O)Nc2ccc(OC)nc2)cc1` (stereo not drawn) | -0.4068 | -18.21 | 16.53 | 1.681 |
| `Cc1cnn(CC2CCCCN2C(=O)c2ccc(N(C)C)nc2)c1` (stereo not drawn) | -4.013 | -11.01 | 4.425 | 3.79 |
| `Cc1cc(C(=O)N2C[C@@H]3COC[C@]3(c3nnc(C4CC4)o3)C2)on1` | 1.154 | -7.033 | 16.98 | 1.622 |
| `COCC(=O)N1CC[C@H]2N(C)CC[C@@]2(C(=O)Nc2ccccc2)CC1` | 4.564 | 6.568 | 15.38 | 3.659 |
| `c1cnn(CCNCc2cnc(N3CCCC3)nc2)c1` | 2.583 | -4.055 | 18.07 | 6.098 |
| `O=C(Nc1ccc(OCc2cccc(F)c2)c(F)c1)C1COCCO1` (stereo not drawn) | 0.4691 | -12.97 | 6.612 | 6.122 |

For reference, 5 entries once more:

{"compound": "CN1CCCCC1c1cncc(Cl)n1", "stereo": "stereo not drawn", "MtTrpRS": -3.179, "Pks13 thioesterase": -3.048, "LiHisRS": 14.49, "TcHisRS": 5.303}
{"compound": "CS(=O)(=O)N1CCn2c(C(=O)N3CCOCC3)cnc2C1", "MtTrpRS": 1.187, "Pks13 thioesterase": -25.13, "LiHisRS": 17.24, "TcHisRS": 8.861}
{"compound": "O=C(c1cnccn1)N1CCCC2(COCCN(CC3CC3)C2)C1", "stereo": "stereo not drawn", "MtTrpRS": -0.2876, "Pks13 thioesterase": -13.9, "LiHisRS": 3.922, "TcHisRS": 4.918}
{"compound": "O=C1NC2(CCN(CCc3ccccc3)CC2)CC1c1ccccc1", "stereo": "stereo not drawn", "MtTrpRS": -2.594, "Pks13 thioesterase": -10.64, "LiHisRS": 5.128, "TcHisRS": 4.598}
{"compound": "CC(C)CS(=O)(=O)CC(=O)N(C)Cc1ccc(OC(F)F)cc1", "MtTrpRS": -7.663, "Pks13 thioesterase": -14.73, "LiHisRS": 13.46, "TcHisRS": 4.167}